Laboratory results: PMC3991326, “Optimal Translational Termination Requires C4 Lysyl Hydroxylation of eRF1” (Molecular Cell, 2014)
These are yes or no findings as the source states them, for the method shown. In cells and extracts the contact can be indirect. For some assays here: Tags and fused reporters may be left off the sequences shown.

Amino acid sequences for entries named in this document (tags omitted).
UniProt Q9NWT6: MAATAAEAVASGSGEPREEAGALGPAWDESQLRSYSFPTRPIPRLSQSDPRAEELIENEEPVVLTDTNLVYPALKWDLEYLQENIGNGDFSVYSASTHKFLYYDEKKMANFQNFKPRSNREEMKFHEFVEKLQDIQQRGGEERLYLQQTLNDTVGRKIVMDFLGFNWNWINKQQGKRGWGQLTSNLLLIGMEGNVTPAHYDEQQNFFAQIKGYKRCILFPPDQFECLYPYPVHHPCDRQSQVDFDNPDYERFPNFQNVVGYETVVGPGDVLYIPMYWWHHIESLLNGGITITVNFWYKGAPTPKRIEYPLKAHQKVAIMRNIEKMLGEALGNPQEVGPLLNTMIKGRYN
UniProt P15170: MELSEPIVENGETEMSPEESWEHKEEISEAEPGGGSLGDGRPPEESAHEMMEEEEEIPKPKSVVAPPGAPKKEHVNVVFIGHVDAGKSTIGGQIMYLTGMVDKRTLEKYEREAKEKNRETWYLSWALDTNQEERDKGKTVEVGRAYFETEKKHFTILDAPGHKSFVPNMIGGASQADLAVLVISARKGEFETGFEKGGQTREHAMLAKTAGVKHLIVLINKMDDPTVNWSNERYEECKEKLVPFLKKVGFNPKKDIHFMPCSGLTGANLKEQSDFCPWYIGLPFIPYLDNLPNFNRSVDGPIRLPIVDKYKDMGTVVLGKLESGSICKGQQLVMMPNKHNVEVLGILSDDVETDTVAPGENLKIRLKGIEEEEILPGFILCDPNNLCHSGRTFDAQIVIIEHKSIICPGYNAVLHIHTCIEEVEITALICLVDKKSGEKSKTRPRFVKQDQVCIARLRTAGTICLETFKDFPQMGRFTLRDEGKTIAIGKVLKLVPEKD

What was measured:
[1] = molecular target: FIH (factor inhibiting HIF), expressed in a HEK293T cell line as control of the anti-FLAG immunoprecipitation (UniProt Q9NWT6); test: co-IP; anti-FLAG immunoprecipitates of cell extracts from HEK293T cell lines, immunoblotted for endogenous eRF1 and eRF3a
[2] = molecular target: T1, FLAG-Jmjd4 H189A (inactive mutant, defective Fe(II) binding) (human) (UniProt Q9H9V9); test: as above
T1 sequence: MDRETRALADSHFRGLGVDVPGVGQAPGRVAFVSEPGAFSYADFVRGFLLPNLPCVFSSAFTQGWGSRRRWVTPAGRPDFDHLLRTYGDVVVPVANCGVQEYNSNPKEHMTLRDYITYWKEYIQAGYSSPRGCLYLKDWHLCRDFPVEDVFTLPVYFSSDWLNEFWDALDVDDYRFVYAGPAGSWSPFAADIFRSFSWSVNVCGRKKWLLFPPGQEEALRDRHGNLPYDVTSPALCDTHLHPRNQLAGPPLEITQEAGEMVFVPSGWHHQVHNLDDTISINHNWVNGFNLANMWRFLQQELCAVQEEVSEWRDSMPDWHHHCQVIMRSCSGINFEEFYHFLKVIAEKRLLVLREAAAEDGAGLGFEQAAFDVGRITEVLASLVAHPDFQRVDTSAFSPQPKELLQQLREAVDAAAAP

## eukaryotic release factor 3a (eRF3a), endogenous (from UniProt P15170 1-499)
[1]
  binding: no binding
[2]
  binding: no binding
